# Results of single-concentration screens

The filed quantity is “Percent Effect” (%).
How 0% and 100% were set is not recorded. Most values in the screen are low, and negative values occur.
The compounds are a random part of those screened.

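Whole-parasite assay of Trypanosoma brucei over 72 hours; the read-out is not stated. Compounds at 30 µM. The record gives no direction; compounds that gave an IC50 in retests scored well above the rest, so higher reads as stronger inhibition. Values scatter widely below zero; nearly all retest evidence comes from the higher of the two concentrations used. Size under these conditions: about 64,000 compounds, about 940 of them at 50% or above in at least one test.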

SMILES,percent effect
COCCC1(C(=O)O)CCCN(C(=O)c2cc(F)ccc2OC)C1 (centres undefined),-6.859
Cc1nc(CCCNC(=O)Nc2ccc(F)cc2F)n[nH]1,-21.59
COc1c(CNC2CCOc3c(F)cccc32)c(C)nn1C (centres undefined),-18.67
O=C(O)C(F)(F)F.[H][C@@]12CCCO[C@]1([H])[C@@H](OCC1CC1)CN2Cc1c(C)noc1C,-62.35
CC(C)c1nc(S(=O)(=O)Nc2ccnn2C2CCCC2)c[nH]1,7.778
Nc1nnc(SCC(=O)NCC(O)c2ccccc2)s1 (centres undefined),-29.55
O=C(Cc1csc(-c2ccco2)n1)N1CCN(c2cnccn2)CC1,12.6
O=C(O)C(F)(F)F.O=C(O)C(F)(F)F.[H][C@@]12COC[C@]1(C(=O)NCc1ccccn1)CN(Cc1ccccc1F)C2,-30.47
Cc1nc(NC(C)C)nc2c1CN(Cc1cccs1)CC2,-46.74
COC(=O)[C@H]1CCCCN1C(=O)c1cccc(-n2cccn2)c1,3.155
CN1CC(=O)N(c2cccc(F)c2)CC12CCN(Cc1ccccn1)C2 (centres undefined),-40.23
Cn1ccnc1CCNS(=O)(=O)Cc1cccc(C#N)c1,-20.22
CCOc1ncccc1C(=O)N1CCN(C)C2(CCN(C)CC2)C1,-50.89
COc1ccc(NC(=O)CCC2CCCN(S(=O)(=O)C3CC3)C2)c(C)c1 (centres undefined),-28.65
[H][C@]12CN(C(C)=O)C[C@@]1([H])OCCN(S(=O)(=O)C1CC1)C2,-92.08
Cc1cc(C)c(CNC(=O)NC2CCOCC2)c(=O)[nH]1,2.801
O=C1CNc2ncnc(Nc3cccc(Cn4cccn4)c3)c2N1,-32.73
NC(=O)c1cccc(CC2CCN(C(=O)CCCN3CCOCC3)C2)c1 (centres undefined),32.21
CC(NC1CCN(CCc2ccncc2)CC1)c1cnn(C(C)C)c1 (centres undefined),-23.44
CCC(CO)NCc1ccc(-c2ccccc2F)o1 (centres undefined),-27.22
COc1ccc(O[C@H]2COCCN(C(=O)c3ccno3)C2)cc1,2.142
CCc1nn(C)c(Cl)c1CN1CCC(Cc2nncn2C)CC1,-45.96
O=C(NC[C@H]1OC[C@@H](NC(=O)c2ccccc2)[C@@H]1O)c1ccncc1,-5.612
CC(C)c1cnc(CN2C(=O)CC3(CCSC3)C2=O)o1 (centres undefined),-16.05
Cc1cncc(C(=O)N2CCC(Cn3cc(-c4ccsc4)nn3)CC2)c1,-13.63
CN1CCOC(CNCc2nc(-c3ccoc3)no2)C1 (centres undefined),-7.602
CCC[C@@H]1CN(C(=O)c2cnc3ccccc3c2)C[C@H]1NS(C)(=O)=O,-86.77
Cc1nc2ccccn2c1CC(=O)N[C@@H]1CC[C@@H](N2CCOCC2)[C@@H]1O,-26.14
COCCNC(=O)Cn1c(C)cc2nc(SC)n(CC(C)C)c(=O)c21,-16.12
Cl.O=C(NCCn1nc(C2CCNC2)c2cccnc21)C1CC1 (centres undefined),-1.545
Cc1cnn(-c2cccc(N3CCN(c4cc(C)nc(C)n4)CC3)n2)c1,-55.26
CCn1ncnc1CN1CCOC(Cc2cccc3ccccc23)C1 (centres undefined),0.5963
OC[C@H]1CCCN1c1nccc(-c2cncnc2C2CCCCC2)n1,-14.29
CN(C)CCN1C(=O)CCC12CCN(Cc1cccs1)CC2.O=C(O)C(F)(F)F.O=C(O)C(F)(F)F,-1.608
CCOC(=O)c1s/c(=N\C(=O)COc2cnc(C)cc2O)[nH]c1C,-32.82
COc1c(C)cnc(CSc2nnc(N)s2)c1C,5.447
Cc1cnn(CC(C)NCc2cc(=O)n3cc(C)ccc3n2)c1 (centres undefined),-2.817
CCN(Cc1cc(Br)ccc1F)C(=O)C(C)NC(N)=O (centres undefined),4.119
Cc1nc(C2CCCN2Cc2nc(C)c(C)o2)no1 (centres undefined),4.24
Cc1csc(NC(=O)Cn2nc(C)ccc2=O)n1,-13.7
O=c1[nH]cccc1-c1nccc(C2(c3ccccc3Cl)CCNCC2)n1,-48.97
Cc1nc(N2CCCC2)nc2c1CCN(Cc1nccn1C)CC2.O=C(O)C(F)(F)F,10.57
CC(=O)N(C)C1CCN(C(=O)NCCc2cc(F)ccc2F)CC1,6.183
O=C(c1cnco1)N1CCC(Cc2cnc3ccccc3c2)CC1,10.98
Cc1c(CN2CC[C@@H](N3CCC(O)CC3)[C@H](O)C2)[nH]c2ccc(Cl)cc12,-14.51
CN(C)c1cncc(-c2ccnc3c2ccn3C)n1,-68.91
CC(=O)N1CCn2c(-c3ccccc3)cnc2C12CCNCC2.O=C(O)C(F)(F)F.O=C(O)C(F)(F)F,-26.55
O=C1NC[C@]2(CC[C@@H](C(=O)N3CCCC(O)C3)CC2)Oc2ccccc21 (some centres undefined),-11.32
C=C(C)COc1ccccc1C(=O)N1CCC(C(=O)NCC)C1 (centres undefined),11.5
NCCO[C@H]1C[C@@H](O)C12CCN(Cc1c(F)cccc1F)CC2,-6.89
Cc1c(Br)cccc1C(=O)NCc1cnn(C)c1,3.159
CC[C@H](N)C(=O)Nc1nn(CC(F)(F)F)c2cc(OC(C)C)ccc12,7.267
CC(C)N(C)CC(=O)Nc1ccc(-n2ccc(C(N)=O)n2)cc1,-26.66
Cn1c(CCC(=O)N2CCCC3(CC2)CNC(=O)O3)nc2cccnc21 (centres undefined),-113.6
O=C(NCCNc1ccccn1)NC1CCOC2(CCCCC2)C1 (centres undefined),-58.64

Some entries from above, unchanged:

* Cc1c(Br)cccc1C(=O)NCc1cnn(C)c1 : 3.159%
* CN1CC(=O)N(c2cccc(F)c2)CC12CCN(Cc1ccccn1)C2 (centres undefined) : -40.23%
* CC[C@H](N)C(=O)Nc1nn(CC(F)(F)F)c2cc(OC(C)C)ccc12 : 7.267%
* Cc1csc(NC(=O)Cn2nc(C)ccc2=O)n1 : -13.7%
* Cc1nc(C2CCCN2Cc2nc(C)c(C)o2)no1 (centres undefined) : 4.24%
* COc1c(C)cnc(CSc2nnc(N)s2)c1C : 5.447%

Measurements from “University of Dundee, Small-Polar-MMV Screening Library” (2021), ChEMBL document CHEMBL3988442.